Laboratory results taken from US6180844A, “Composition containing fluorescence-generating substrate” (Aisin Seiki Kabushiki Kaisha, priority 1998, dated 2001).

Tested on: human chromosome
Experiment: In-situ hybridization of a human chromosome: fluorescence-generating substrate reacted with probe-bonded peroxidase and hydrogen peroxide, observed by fluorescence microscope
Details: fluorescence microscope observation
From the text: A human chromosome sample was hybridized with a digoxigenin-labeled, full-length human DNA probe, to which was bonded a peroxidase-labeled anti-digoxigenin antibody. This was reacted with any of fluorescence-generating substrates of the invention (Compounds 1 to 11) or with a comparative substrate of a commercially available, water-soluble fluorescent substrate, 3-(4-hydroxyphenyl)propionic acid (HPPA). […] The full-length human DNA probe hybridizes entirely with the human chromosome. Therefore, if the fluorescence-generating substrates tested herein are reacted in a reaction system comprising peroxidase and hydrogen peroxide, the entire chromosome in the system shall be seen to emit fluorescence in the fluorescence-microscopic observation.
The procedure is as follows:
Human chromosome samples were prepared from cultured human peripheral blood lymphocytes. Full-length human DNA was labeled with digoxigenin through nick translation, collected through ethanol precipitation, and dissolved in formamide to prepare a digoxigenin-labeled, full-length human DNA probe. Each human chromosome sample was immersed in a denaturing solution kept heated at 70° C., for 2 minutes, and then rapidly cooled by putting it into 70% ethanol cooled to 4° C., whereby the double-stranded DNA of the sample was kept dissociated in a single-stranded condition. The probe was kept in a water bath at 75° C. for 10 minutes, and then rapidly cooled in ice water with 5 minutes, whereby the double-stranded DNA of the probe was kept dissociated in a single-stranded condition. This probe was mixed with a hybridization solution, put on the human chromosome sample, and reacted with it overnight at 37° C. (in-situ hybridization).
After having been hybridized, the system was washed with a solution of 50% formamide/2×SSC at 37° C. for 15 minutes, then with 2×SSC at room temperature for 15 minutes, and then with 4×SSC at room temperature for 5 minutes, thereby removing the excess, non-hybridized probe therefrom. […] Any of the fluorescence-generating substrates (Compounds 1 to 11) of the invention and a commercially-available, water-soluble fluorescent substrate, HPPA was dissolved in a reactant solution containing 0.01% hydrogen peroxide […], and the resulting fluorescent substrate solution was put on the sample and reacted with it at room temperature for 30 minutes. After reacting in the reaction system comprising the probe-bonded peroxidase and hydrogen peroxide, the fluorescence-generating substrate formed a new compound which was fixed on the chromosome and emitted fluorescence, which was observed using a fluorescence microscopic.
The full-length human DNA probe hybridizes with the entire chromosome, with the result that the entire chromosome was stained with the fluorescence-generating substrate. […]

SMILES | Color of Fluorescence
Cc1cc(O)ccc1NC(=O)c1ccccc1C [Compound 9] | green
Cc1cc(C)c(C(=O)Nc2ccc(O)cc2C)c(C)c1 [Compound 10, 4-hydroxy-2-methylphenyl-2,4,6-trimethylbenzamide] | green
O=C(O)CCCCCNC(=O)CCc1ccc(O)cc1 [Compound 11, 6-{3-(4-hydroxyphenyl)propionamido}hexanoic acid] | green
O=C(O)CCc1ccc(O)cc1 [HPPA, 3-(4-hydroxyphenyl)propionic acid, reference compound] | green
